No constants are given. Whether binding was seen depends on the method and setting. Some entries that bind do so weakly or less than the wild type. For part of these data: Sequences can lack the tags named with a protein.
T1: Smc6-3C-Twin-Strep (S. cerevisiae, UniProt Q12749 1-1114)
T1 construct: Smc6, S. cerevisiae; stood in the assays as a subunit of the hexamer or octamer; also called Smc6-Twin-Strep; Smc6-3C-TS; source: E. coli (DE3) Rosetta, co-expressed with the other subunits of the hexamer, purified as part of the complex; not shown: Twin-Strep (after a 3C site), C-terminal, kept
T1 sequence (looked up): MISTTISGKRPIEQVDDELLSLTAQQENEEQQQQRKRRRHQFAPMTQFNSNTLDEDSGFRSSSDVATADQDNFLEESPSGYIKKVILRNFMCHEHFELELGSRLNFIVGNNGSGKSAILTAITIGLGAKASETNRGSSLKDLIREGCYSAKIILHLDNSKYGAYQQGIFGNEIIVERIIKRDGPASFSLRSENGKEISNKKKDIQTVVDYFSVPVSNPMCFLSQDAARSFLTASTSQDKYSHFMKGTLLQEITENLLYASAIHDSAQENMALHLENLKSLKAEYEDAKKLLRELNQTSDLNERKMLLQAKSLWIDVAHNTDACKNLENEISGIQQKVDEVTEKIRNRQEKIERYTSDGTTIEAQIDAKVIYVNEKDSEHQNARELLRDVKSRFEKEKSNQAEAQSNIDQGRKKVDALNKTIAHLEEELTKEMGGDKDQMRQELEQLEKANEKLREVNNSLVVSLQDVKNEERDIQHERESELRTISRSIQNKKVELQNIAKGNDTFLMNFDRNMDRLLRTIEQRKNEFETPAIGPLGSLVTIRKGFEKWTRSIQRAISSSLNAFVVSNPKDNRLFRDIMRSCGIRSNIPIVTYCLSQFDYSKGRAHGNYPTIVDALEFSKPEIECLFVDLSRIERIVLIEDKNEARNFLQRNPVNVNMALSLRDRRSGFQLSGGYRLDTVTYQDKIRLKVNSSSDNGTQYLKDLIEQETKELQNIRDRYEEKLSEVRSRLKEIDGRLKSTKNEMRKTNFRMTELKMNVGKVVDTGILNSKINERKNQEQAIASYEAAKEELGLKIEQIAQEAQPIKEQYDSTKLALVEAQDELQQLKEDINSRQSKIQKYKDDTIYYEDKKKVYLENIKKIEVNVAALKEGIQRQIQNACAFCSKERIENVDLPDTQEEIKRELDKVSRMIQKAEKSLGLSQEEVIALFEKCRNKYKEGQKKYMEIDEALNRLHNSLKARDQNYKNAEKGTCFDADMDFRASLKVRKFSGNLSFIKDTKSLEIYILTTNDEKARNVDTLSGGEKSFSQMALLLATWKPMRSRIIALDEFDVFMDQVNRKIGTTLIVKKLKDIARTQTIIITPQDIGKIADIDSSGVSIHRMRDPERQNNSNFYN

T2: Smc5 (S. cerevisiae) (UniProt Q08204)
T2 sequence: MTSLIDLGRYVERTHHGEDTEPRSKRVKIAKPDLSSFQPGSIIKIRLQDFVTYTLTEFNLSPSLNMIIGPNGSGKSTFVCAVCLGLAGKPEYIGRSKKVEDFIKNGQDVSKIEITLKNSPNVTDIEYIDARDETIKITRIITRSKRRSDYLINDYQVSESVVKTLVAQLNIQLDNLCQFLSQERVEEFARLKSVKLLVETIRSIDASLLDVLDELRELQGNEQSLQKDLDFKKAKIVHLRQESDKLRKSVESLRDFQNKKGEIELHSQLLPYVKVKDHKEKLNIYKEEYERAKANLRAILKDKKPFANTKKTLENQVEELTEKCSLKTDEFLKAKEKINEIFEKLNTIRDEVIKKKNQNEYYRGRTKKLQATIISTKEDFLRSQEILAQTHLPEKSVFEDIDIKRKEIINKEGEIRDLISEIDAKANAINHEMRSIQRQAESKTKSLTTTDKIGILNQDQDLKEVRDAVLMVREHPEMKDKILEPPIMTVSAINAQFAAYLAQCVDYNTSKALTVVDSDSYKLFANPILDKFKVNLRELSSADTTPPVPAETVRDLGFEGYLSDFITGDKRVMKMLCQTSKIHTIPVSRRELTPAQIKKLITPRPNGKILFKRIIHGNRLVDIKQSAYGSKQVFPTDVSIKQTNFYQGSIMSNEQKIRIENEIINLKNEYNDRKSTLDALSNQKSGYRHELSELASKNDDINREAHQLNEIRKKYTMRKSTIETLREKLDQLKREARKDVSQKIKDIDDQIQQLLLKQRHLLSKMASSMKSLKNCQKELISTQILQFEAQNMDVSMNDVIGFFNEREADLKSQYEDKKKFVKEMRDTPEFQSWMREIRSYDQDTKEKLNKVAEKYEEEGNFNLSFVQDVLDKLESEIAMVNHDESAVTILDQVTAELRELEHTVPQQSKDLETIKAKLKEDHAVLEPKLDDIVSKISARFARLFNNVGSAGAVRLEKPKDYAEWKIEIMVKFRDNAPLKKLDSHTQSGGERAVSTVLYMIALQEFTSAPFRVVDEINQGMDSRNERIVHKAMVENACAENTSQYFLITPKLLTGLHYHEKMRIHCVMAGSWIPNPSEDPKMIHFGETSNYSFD

B1: Smc5 (natural protein, S. cerevisiae, UniProt Q08204 1-1093, looked up)
chain: T2 sequence
notes: Smc5, S. cerevisiae; stood in the assays as a subunit of the hexamer or octamer; source: E. coli (DE3) Rosetta, co-expressed with the other subunits of the hexamer, purified as part of the complex
B2: Nse5-AviTag (from Nse5-AviTag-3C-Twin-Strep, Twin-Strep removed) (natural protein, S. cerevisiae, UniProt Q03718 1-556, looked up)
chain: MDGALINSVLYVSPRNGAHYFVELTEKHLLAFEMLNSMCLLENYDHVLLFLECQFGKSHNLAVIPFDIILVLFTLSTLSEYYKEPILRANDPYNTSRETLSRRALKLLQKYLAILKEFDSEQYNLYDLELLRCQFFLAIDTLTPKKQKWGFDRFRRTKSESGVTYRQNASVDPELDQAKTFKNPYRSYISCLEQRNTILGNRLLNLKLNEPGEFINMILWTLSNSLQESTPLFLSSHEIWMPLLEILIDLFSCRQDYFIQHEVAQNVSKSLFVQRLSESPLAVFFESLNTRNFANRFSEYVFLNCDYKLPSDNYATPVHPVYNGENTIVDTYIPTIKCSPLYKSQKSLALRRKLIGSCFKLLLRVPDGHRLITPRIVADDVIQGISRTLASFNDILQFKKFFMTENLSQESYFIPLLAEGTLSEILKDTQECVVILTLVENLSDGVSFCNEVIGLVKSKCFAFTEQCSQASYEEAVLNIEKCDVCLLVLLRYLLHLIGTEAILDAKEQLEMLHAIEKNDSGRRQWAKALNLGNDPPLLYPIVSQMFGVHDKSVIIE
notes: Nse5, S. cerevisiae, full length; subunit of the octamer used for XL-MS; the AviTag lies before the 3C site and should remain; source: E. coli (DE3) Rosetta, co-expressed with Nse6, purified (StrepTrap, heparin, SEC); Twin-Strep removed by HRV-3C; not shown: Twin-Strep (after a 3C site), C-terminal, cleaved
B3: Nse2 (natural protein, S. cerevisiae, UniProt P38632 1-267, looked up)
chain: MALNDNPIPKSVPLHPKSGKYFHNLHARDLSNIYQQCYKQIDETINQLVDSTSPSTIGIEEQVADITSTYKLLSTYESESNSFDEHIKDLKKNFKQSSDACPQIDLSTWDKYRTGELTAPKLSELYLNMPTPEPATMVNNTDTLKILKVLPYIWNDPTCVIPDLQNPADEDDLQIEGGKIELTCPITCKPYEAPLISRKCNHVFDRDGIQNYLQGYTTRDCPQAACSQVVSMRDFVRDPIMELRCKIAKMKESQEQDKRSSQAIDVL
notes: Nse2, S. cerevisiae; source: E. coli (DE3) Rosetta, co-expressed with the other subunits of the hexamer, purified as part of the complex
B4: Nse1 (protein, UniProt Q07913 1-336)
chain: MEVHEEQVSAPVTGDATAKYLLQYILSARGICHENALILALMRLETDASTLNTEWSIQQWVDKLNDYINAINVKLNLLGYKIIRINHGIGRNAVTLKAKQNFESFEDNTAIRAHNNDYAVLQSIVLPESNRFFVYVNLASTEETKLATRFNQNEIEFMKWAIEQFMISGETIVEGPALETSIIVKEVNRILVAATGDSNLAKWRKFSTFTVGSTNLFQFQELTATDIEDLLLRLCELKWFYRTQEGKFGIDLRCIAELEEYLTSMYNLNTCQNCHKLAIQGVRCGNESCREENEETGENSLSQIWHVDCFKHYITHVSKNCDRCGSSLITEGVYVI
B5: Nse4 (natural protein, S. cerevisiae, UniProt P43124 1-402, looked up)
chain: MSSTVISRKRRNSTVTEPDSSGETRKQKKSRSDEKSSSSKDGDPQLEFKVLQGYRDLESEMHKGRAQVTRTGDIGVAMDNLNAVDSLFNKVIGIKNNGLFAHDARAMVSISELAQISVRNLKFDDSRSMVNLENIVNSLKRYMLKEHFKLNNIAENRNDLTLAADEQSAADQQEESDGDIDRTPDDNHTDKATSSFKATSMRHSYLQQFSHYNEFSQFNWFRIGALYNTISKNAPITDHLMGPLSIEKKPRVLTQRRRNNDQVGEKITAEKITQHSLNSTQQETTPEQVKKCFKKLSKKLGPEGSINLFKFIIDPNSFSRSIENLFYTSFLIKEGKLLMEHDEEGLPTIKIKQSISHTDSRSKEIERQRRRAAHQNHIIFQMDMPTWRKLIKKYNITSPFLD
notes: Nse4, S. cerevisiae; also called kleisin Nse4; source: E. coli (DE3) Rosetta, co-expressed with the other subunits of the hexamer, purified as part of the complex

Assays:
Smc6-3C-Twin-Strep [1] = target: T1, Smc6-3C-Twin-Strep; assay: co-purification; six subunits co-expressed in E. coli from one plasmid; captured by the Twin-Strep-tag on Smc6 (StrepTrap), then heparin and gel filtration; single species on analytical gel filtration, peak fractions on SDS-PAGE
Smc5 (S. cerevisiae) [2] = target: T2, Smc5 (S. cerevisiae); assay: cross-linking; XL-MS with the lysine-reactive PhoX (0.25 mM, 20 min, RT) on the reconstituted octamer, 1.6 µM; salt buffer 20 mM Hepes-KOH pH 7.5, 250 mM NaCl; both purified
Smc5 (S. cerevisiae) [3] = target: T2, Smc5 (S. cerevisiae); assay: cross-linking; XL-MS with PhoX (0.25 mM, 20 min, RT) on the octamer, 1.6 µM; ATPase buffer (10 mM Hepes-KOH pH 7.5, 150 mM potassium acetate, 2 mM MgCl2, 20% glycerol); without and with 2 mM ATP and 16 nM plasmid DNA; wild-type and Smc5(EQ)/Smc6(EQ) octamers; both purified
Smc6-3C-Twin-Strep [4] = target: T1, Smc6-3C-Twin-Strep; assay: pull-down; purified octamer pulled down via Smc6-Twin-Strep, in the absence or presence of ATP and plasmid DNA, conditions as for XL-MS; both purified

Binder	binding (Smc6-3C-Twin-Strep [1])	binding (Smc5 (S. cerevisiae) [2])	binding (Smc5 (S. cerevisiae) [3])	binding (Smc6-3C-Twin-Strep [4])
B1	binds			
B2		binds		
B3	binds		binds	
B4	binds			binds
B5	binds		binds	binds
